Reference: PubChem BioAssay AID504444 (National Center for Advancing Translational Sciences (NCATS), 2011)
In all, about 360,000 compounds went through this assay and about 7,500 (2.1%) were called active. The shares of active, inactive and inconclusive entries below differ from those in the screen. Calls follow the shape of the dose curve; as a rule, active = well fitted inhibition curve with a large enough effect; inconclusive = small, poorly fitted or top-dose-only effect, or effect the other way; inactive = flat fitted curve, though single readings scatter. A potency beside an inconclusive call is a rough fit, not a confirmed value.

Test: Nrf2 qHTS screen for inhibitors; also: nearly all actives have a fitted effect of over 60% in size
Conditions: A549 ARE-Fluc reporter, luciferase luminescence, 18-24 h; activity change, negative = inhibition: at 46 µM (top of the series)
Method in brief: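 Nrf2 function is reported as luminescence of an ARE-controlled luciferase in A549 cells. Compounds were tested at several concentrations, and a CellTiter-Fluor read on the same wells flagged cytotoxicity.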
% is scaled to controls: 0 for no effect and ±100 for the full control effect; potency is read from the fitted curve at half-maximal effect.

Compound | Potency | activity change, negative = inhibition
Cc1ccc(C(=O)N/C(=C\c2cccc([N+](=O)[O-])c2)C(=O)OCN2C(=O)c3ccccc3C2=O)cc1 | inconclusive: 6.51 µM [activator, single point] | –
Cc1ccccc1-c1cc(-c2ccccc2O)on1 | inconclusive: 23.1 µM [activator, partial curve] | –
O=C(NC(=S)Nc1cccc(Cl)c1Cl)C1CC1 | inconclusive: 11.6 µM [activator, partial curve] | –
CCN(CC(=O)NCc1cccs1)c1ccc(S(=O)(=O)N2CCN(C)CC2)cn1 | – | inactive: -2.67%
CCOC(=O)c1c(NC(=O)C2=C(C)NC(=S)NC2c2ccc(C)cc2)sc(C)c1C (centres undefined) | inconclusive: 23.1 µM [falling, single point] | –
Cc1nnc(SCc2nc3ccccc3[nH]2)s1 | inconclusive: 8.2 µM [activator, partial curve, poor fit] | –
CCOC(=O)c1c(-c2ccccc2)csc1NC(=O)CSc1nncs1 | inconclusive: 29.1 µM [falling, single point] | –
C[C@H](NC(=O)c1ccccc1)C(=O)N1CCN(c2ccccc2)CC1 | inconclusive: 13 µM [falling, partial curve] | –
COc1ccc(OCC(=O)NC(=S)NNC(=O)COc2ccc(Br)cc2Cl)cc1 | – | inactive: -4.15%
C(=N\NC1=Nc2cccc3cccc1c23)/c1ccccn1 | – | inactive: 21.9%
COc1ccc2c(n1)Sc1nc3ccccc3nc1N2 | inconclusive: 29.1 µM [activator, single point] | –
O=c1nc(SCc2cccc(C(F)(F)F)c2)nc2ccccn12 | – | inactive: -5.08%
Cc1ccc(C(=O)Nc2nc(=O)[nH]s2)cc1 | inconclusive: 18.4 µM [activator, single point] | –
Cc1nn(C)c(C)c1C(C)NC(=O)c1ccc(OC2CCN(Cc3ccccn3)CC2)cc1 (centres undefined) | inconclusive: 14.6 µM [falling, partial curve] | –
COc1ccccc1C(=O)Oc1cc(N)n(S(=O)(=O)c2ccc(C)cc2)n1 | inconclusive: 14.6 µM [falling, partial curve, poor fit] | –
CC(=O)c1[nH]c(C)c(C(=O)N2CCCC(Nc3ccc(C(C)C)cc3)C2)c1C (centres undefined) | active: 14.6 µM | –
C=C1C(=O)O[C@@H]2[C@H]1[C@@H](OC(=O)/C(C)=C/C)C/C(C)=C\C(=O)/C=C(\C)[C@@H]2O | active: 20.6 µM | –
Cc1nn(-c2cccc(C(F)(F)F)c2)c(Cl)c1/C=N/n1cnnc1 | inconclusive: 16.4 µM [falling, single point] | –
O=c1[nH]c2ccccc2c(=O)n1Cc1ccccc1 | – | inactive: 25.6%
O=C(OCc1ccccc1)N(CCCCN(CCCNCc1ccccc1)C(=O)OCc1ccccc1)CCCNCc1ccccc1 | inconclusive: 29.1 µM [falling, single point] | –
CCCCn1c(SCC(=O)N2c3ccccc3CCc3ccccc32)nc2c1c(=O)n(C)c(=O)n2C | inconclusive: 0.231 µM [falling, full curve, poor fit] | –
COc1ccc(S(=O)(=O)N2CCC(C(=O)Nc3ccccc3C)CC2)c2cccnc12 | inconclusive: 1.84 µM [falling, partial curve, poor fit] | –

Compound | Potency | activity change, negative = inhibition
CC(=O)c1cn(CC(=O)Nc2cccc(C)c2C)c2ccccc12 | active: 5.17 µM | –
CC(C)N(C(=O)[C@H]1C[C@H](CC(=O)NCCc2ccccn2)C(=O)N2CCc3c([nH]c4cc(-c5ccco5)ccc34)[C@]12C)C(C)C | inconclusive: 25.9 µM [falling, single point] | –
N#Cc1ccc(C(=O)Nc2nc3ccccc3[nH]2)cc1 | inconclusive: 2.59 µM [activator, full curve] | –
CCC(=O)Nc1ccc2c(c1)C(=O)c1ccccc1C2=O | inconclusive: 1.3 µM [activator, full curve] | –
COc1cc(/C=C2\SC(=S)N(CCC(=O)Nc3ccccn3)C2=O)cc(OC)c1OC | – | inactive: -1.28%
CN(c1ccccc1)S(=O)(=O)c1ccc(Cl)c(C(=O)Nc2ccncc2)c1 | active: 8.2 µM | –
CCOC(=O)[C@@H]1[C@H]2COc3cc(OC)ccc3[C@H]2N2C(=O)N(c3ccc(F)cc3)C(=O)[C@]12C | inconclusive: 16.4 µM [falling, single point] | –
COc1ccc(C(=O)/C=C/c2cn(CC(O)CN3CCc4ccccc43)c3ccccc23)cc1OC (centres undefined) | inconclusive: 29.1 µM [falling, single point] | –
Cc1ccc(CS(=O)(=O)Cc2ccc(C(=O)NCc3cccnc3)o2)cc1 | inconclusive: 5.8 µM [falling, partial curve] | –
CCOc1ccccc1CN(Cc1ccco1)S(=O)(=O)c1ccc(-n2cnnn2)c(OC)c1 | inconclusive: 0.731 µM [falling, full curve, poor fit] | –
Nc1c(Cl)cc(N=Nc2ccccc2)cc1Cl | inconclusive: 20.6 µM [activator, partial curve] | –
COc1cc(C(C)=O)ccc1OCC(=O)Nc1ccc(Cl)c(S(=O)(=O)N2CCOCC2)c1 | inconclusive: 14.6 µM [falling, single point] | –
CCc1cccc(NC(=O)c2ccc(Cn3c(=O)[nH]c4ccsc4c3=O)cc2)c1 | inconclusive: 7.31 µM [falling, single point] | –
Cc1ccccc1C(=O)N1CCN(c2ccc(NC(=O)c3ccco3)cc2Cl)CC1 | inconclusive: 29.1 µM [falling, single point] | –
O=C(CC(C(=O)O)c1cccc(Br)c1)c1ccc(Cl)cc1 (centres undefined) | inconclusive: 14.6 µM [falling, partial curve] | –
Cc1cc(C)c2nc(N(CCCN(C)C)C(=O)c3ccc(S(=O)(=O)N4CCCCCC4)cc3)sc2c1 | – | inactive: 3.25%
COc1ccc(NS(=O)(=O)c2cc(NC(=O)COc3ccccc3)ccc2N2CCOCC2)cc1 | – | inactive: -1.59%
Cc1onc(-c2ccccc2)c1C(=O)NNC(=S)NC(=O)/C=C/c1cccs1 | inconclusive: 29.1 µM [falling, single point] | –
Cc1ccnc(NC(=O)c2ccc(S(=O)(=O)N3CCC(C)CC3)cc2)c1 | inconclusive: 4.11 µM [activator, full curve] | –
CCN(c1ccccc1)S(=O)(=O)c1ccc2[nH]cc(C(=O)NCCOC)c(=O)c2c1 | – | inactive: 3.42%
O=c1c(C/C=C/c2ccccc2)c(O)nc2n1CCCS2 | inconclusive: 29.1 µM [falling, single point] | –
Cc1ccc(CC(=O)Nc2cccc(C)n2)cc1 | inconclusive: 3.66 µM [activator, single point] | –

4 entries from above, ordered by SMILES length, rising.
Compound | Potency | activity change, negative = inhibition
Cc1ccc(CC(=O)Nc2cccc(C)n2)cc1 | inconclusive: 3.66 µM [activator, single point] | –
O=c1c(C/C=C/c2ccccc2)c(O)nc2n1CCCS2 | inconclusive: 29.1 µM [falling, single point] | –
CC(=O)c1cn(CC(=O)Nc2cccc(C)c2C)c2ccccc12 | active: 5.17 µM | –
COc1ccc(NS(=O)(=O)c2cc(NC(=O)COc3ccccc3)ccc2N2CCOCC2)cc1 | – | inactive: -1.59%

The results go on:

Compound | Potency | activity change, negative = inhibition
Cc1cccc(N2CCN(C(=O)CSc3ccsc3[N+](=O)[O-])CC2C)c1 (centres undefined) | – | inactive: -17.7%
Cc1ccccc1OCCN(C#N)c1nc(N(C)C)nc(N(C)C)n1 | inconclusive: 18.4 µM [falling, partial curve] | –
C=C(C)c1cc2c(s1)c1cnn(Cc3ccccc3F)c(=O)c1n2C | inconclusive: 0.103 µM [falling, full curve, poor fit] | –
C#CCOCCOCCOCCNc1nc(N2CCN(C(=O)CCCCCCCCCCNC(=O)[C@@H](CCSC)n3cc(CCO)nn3)CC2)nc(N2CCN(C(=O)CCCCCCCCCCNC(=O)[C@H](CCCN=C(N)N)n3cc(C[C@@H](C)CC)nn3)CC2)n1 | inconclusive: 23.1 µM [falling, single point] | –
COc1ccc(NC(=O)CN(C)S(=O)(=O)c2ccc3c(c2)NC(=O)CS3)cc1 | inconclusive: 5.17 µM [falling, partial curve] | –
CCOC(=O)c1[nH]c2ccccc2c1NC(=O)c1ccco1 | inconclusive: 20.6 µM [falling, partial curve, poor fit] | –
CC(=O)N1CCc2cc(S(=O)(=O)NCCC(=O)N3CCc4ccccc4C3)ccc21 | active: 13 µM | –
COc1cc(C(=O)Nc2nc3ccccc3[nH]2)ccc1OC(F)F | inconclusive: 2.06 µM [activator, partial curve, poor fit] | –
Cn1nc(CC(=O)NCc2ccc(C(F)(F)F)cc2)c2ccccc2c1=O | inconclusive: 9.2 µM [falling, partial curve, poor fit] | –
Cc1ccc(C(C)C)c(OCc2ccc(C(=O)N/N=C/c3ccc(O)cc3O)cc2)c1 | inconclusive: 6.51 µM [falling, partial curve, poor fit] | –
COCC(=O)n1nc(-c2ccco2)nc1NCc1ccccc1Cl | inconclusive: 8.2 µM [activator, partial curve] | –
CN(C)CCCNC(=S)NCC(c1ccc(Cl)cc1Cl)c1c[nH]c2ccccc12 (centres undefined) | – | inactive: -4.32%
CCOC(=O)c1ccc(NC(=O)Cn2cc(C(=O)C3CC3)c3ccccc32)cc1 | – | inactive: -6.52%
C=CCc1cccc2cc(-c3nc4ccc(C)cc4[nH]3)c(=O)oc12 | inconclusive: 2.31 µM [activator, full curve] | –
COc1ccc(CCNC(=O)c2ccc3c(c2)N(Cc2ccc(F)cc2)C(=O)c2ccccc2S3(=O)=O)cc1OC | inconclusive: 3.66 µM [activator, full curve] | –
Cc1ccc(C(=O)N/C(=C\c2ccc(-c3cc(Cl)ccc3Cl)o2)C(=O)NCc2cccnc2)cc1 | inconclusive: 29.1 µM [falling, single point] | –
O=C(CSCc1ccccc1)Nc1nccs1 | inconclusive: 2.06 µM [activator, full curve, poor fit] | –
CSc1nc2ccc3nc(NC(=O)c4ccccc4)sc3c2s1 | inconclusive: 2.59 µM [activator, full curve] | –
O=C(COC(=O)c1ccccc1OCc1ccc(F)cc1)NCC1CCCO1 (centres undefined) | – | inactive: 3.74%
COc1ccccc1NC(=O)C1=C(C)Nc2nc(SCc3ccccc3)nn2C1c1cccc(O)c1 (centres undefined) | – | inactive: -2.92% [at 9.27 µM]
